For the experiment, the target named is T1, Strep/FLAG-tagged LCA5 (UniProt Q86VQ0).
T1 sequence: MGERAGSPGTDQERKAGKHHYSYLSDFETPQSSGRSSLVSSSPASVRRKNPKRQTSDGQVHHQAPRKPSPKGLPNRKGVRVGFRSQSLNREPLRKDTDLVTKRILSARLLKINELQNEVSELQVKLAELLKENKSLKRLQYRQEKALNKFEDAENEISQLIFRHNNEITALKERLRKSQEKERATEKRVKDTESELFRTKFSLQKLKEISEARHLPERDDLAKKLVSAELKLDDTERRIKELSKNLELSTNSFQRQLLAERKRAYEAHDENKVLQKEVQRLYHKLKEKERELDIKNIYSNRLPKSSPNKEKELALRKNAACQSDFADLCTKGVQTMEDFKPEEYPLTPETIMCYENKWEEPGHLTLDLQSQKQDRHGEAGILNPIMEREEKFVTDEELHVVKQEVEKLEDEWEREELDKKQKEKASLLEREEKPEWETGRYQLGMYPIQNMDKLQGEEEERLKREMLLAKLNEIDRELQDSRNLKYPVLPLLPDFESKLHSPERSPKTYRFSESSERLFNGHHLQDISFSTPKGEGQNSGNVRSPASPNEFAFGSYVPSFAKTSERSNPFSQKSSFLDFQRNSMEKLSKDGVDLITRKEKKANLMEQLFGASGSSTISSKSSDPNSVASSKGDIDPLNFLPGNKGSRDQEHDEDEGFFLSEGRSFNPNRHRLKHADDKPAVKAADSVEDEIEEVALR
Put plainly: affinity purification with mass spectrometry; Strep-Tactin Superflow on lysates of HEK293T Cas9 control, TTC30B KO and TTC30A/B KO cells transfected with Strep/FLAG-tagged LCA5 or IFT88 (Strep/FLAG-RAF1 as control); Strep elution buffer; label-free LC-MS/MS; four biological replicates.

Chains of the proteins cited; added tags and fusions are not shown.
UniProt Q9UG01: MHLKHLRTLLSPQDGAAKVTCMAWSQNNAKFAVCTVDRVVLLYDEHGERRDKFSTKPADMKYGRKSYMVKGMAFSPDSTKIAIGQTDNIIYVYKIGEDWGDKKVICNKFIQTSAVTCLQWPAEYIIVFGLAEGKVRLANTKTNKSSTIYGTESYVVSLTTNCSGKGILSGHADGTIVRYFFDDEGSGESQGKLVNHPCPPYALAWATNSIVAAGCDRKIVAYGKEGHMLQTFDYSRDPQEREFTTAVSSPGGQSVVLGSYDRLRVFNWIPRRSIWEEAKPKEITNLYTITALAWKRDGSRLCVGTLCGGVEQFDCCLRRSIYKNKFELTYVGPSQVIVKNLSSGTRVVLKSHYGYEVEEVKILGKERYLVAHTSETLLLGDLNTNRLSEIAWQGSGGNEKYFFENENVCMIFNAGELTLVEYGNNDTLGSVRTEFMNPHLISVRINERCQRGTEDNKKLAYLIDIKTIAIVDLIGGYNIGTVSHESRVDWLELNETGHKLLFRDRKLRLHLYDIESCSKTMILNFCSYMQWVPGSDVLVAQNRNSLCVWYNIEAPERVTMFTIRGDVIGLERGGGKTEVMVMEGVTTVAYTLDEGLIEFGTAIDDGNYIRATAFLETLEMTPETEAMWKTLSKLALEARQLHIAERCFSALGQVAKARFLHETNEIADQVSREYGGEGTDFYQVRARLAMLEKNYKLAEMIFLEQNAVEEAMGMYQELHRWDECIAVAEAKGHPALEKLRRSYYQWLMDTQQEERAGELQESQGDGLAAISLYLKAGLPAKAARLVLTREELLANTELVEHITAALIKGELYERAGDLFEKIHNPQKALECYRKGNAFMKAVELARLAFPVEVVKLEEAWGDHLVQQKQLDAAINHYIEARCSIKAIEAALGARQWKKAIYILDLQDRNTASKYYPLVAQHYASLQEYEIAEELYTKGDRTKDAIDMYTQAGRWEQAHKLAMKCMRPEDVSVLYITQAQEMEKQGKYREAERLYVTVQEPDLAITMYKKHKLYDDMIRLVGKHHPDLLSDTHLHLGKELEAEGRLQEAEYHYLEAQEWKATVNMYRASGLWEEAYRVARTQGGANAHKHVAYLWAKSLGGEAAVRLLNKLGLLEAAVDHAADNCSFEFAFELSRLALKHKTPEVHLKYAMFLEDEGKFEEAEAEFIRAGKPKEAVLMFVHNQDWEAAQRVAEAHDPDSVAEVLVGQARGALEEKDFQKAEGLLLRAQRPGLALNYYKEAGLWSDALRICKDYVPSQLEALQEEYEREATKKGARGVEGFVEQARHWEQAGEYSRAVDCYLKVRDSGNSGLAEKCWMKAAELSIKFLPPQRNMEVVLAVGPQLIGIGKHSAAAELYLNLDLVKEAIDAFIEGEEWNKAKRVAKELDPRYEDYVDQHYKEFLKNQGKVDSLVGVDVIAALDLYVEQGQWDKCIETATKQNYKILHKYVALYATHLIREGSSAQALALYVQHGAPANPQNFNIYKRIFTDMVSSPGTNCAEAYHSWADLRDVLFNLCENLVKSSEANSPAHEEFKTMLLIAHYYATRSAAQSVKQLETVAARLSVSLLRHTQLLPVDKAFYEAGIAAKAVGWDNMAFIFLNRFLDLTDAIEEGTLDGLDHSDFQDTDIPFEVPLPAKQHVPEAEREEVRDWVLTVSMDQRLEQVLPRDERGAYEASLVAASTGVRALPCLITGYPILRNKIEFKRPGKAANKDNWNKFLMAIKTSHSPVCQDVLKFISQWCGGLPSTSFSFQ

Results are given in words; binding and its absence hold for the method and conditions named. In cells and extracts the contact can be indirect. A yes stands for co-enrichment or nearness to the bait. Other partners may have been found. Sequences can lack the tags named with a protein.

As for IFT172 (from UniProt Q9UG01 1-1749), the binding result was “binds”.

B1: IFT81 (protein, UniProt Q8WYA0 1-676)
chain: MSDQIKFIMDSLNKEPFRKNYNLITFDSLEPMQLLQVLSDVLAEIDPKQLVDIREEMPEQTAKRMLSLLGILKYKPSGNATDMSTFRQGLVIGSKPVIYPVLHWLLQRTNELKKRAYLARFLIKLEVPSEFLQDETVADTNKQYEELMEAFKTLHKEYEQLKISGFSTAEIRKDISAMEEEKDQLIKRVEHLKKRVETAQNHQWMLKIARQLRVEKEREEYLAQQKQEQKNQLFHAVQRLQRVQNQLKSMRQAAADAKPESLMKRLEEEIKFNLYMVTEKFPKELENKKKELHFLQKVVSEPAMGHSDLLELESKINEINTEINQLIEKKMMRNEPIEGKLSLYRQQASIISRKKEAKAEELQEAKEKLASLEREASVKRNQTREFDGTEVLKGDEFKRYVNKLRSKSTVFKKKHQIIAELKAEFGLLQRTEELLKQRHENIQQQLQTMEEKKGISGYSYTQEELERVSALKSEVDEMKGRTLDDMSEMVKKLYSLVSEKKSALASVIKELRQLRQKYQELTQECDEKKSQYDSCAAGLESNRSKLEQEVRRLREECLQEESRYHYTNCMIKNLEVQLRRATDEMKAYISSDQQEKRKAIREQYTKNTAEQENLGKKLREKQKVIRESHGPNMKQAKMWRDLEQLMECKKQCFLKQQSQTSIGQVIQEGGEDRLIL
For B1, the binding result is reported as “binds”.

B2: IFT46 (protein, UniProt Q9NQC8 1-304)
chain: MADNSSDECEEENNKEKKKTSQLTPQRGFSENEDDDDDDDDSSETDSDSDDDDEEHGAPLEGAYDPADYEHLPVSAEIKELFQYISRYTPQLIDLDHKLKPFIPDFIPAVGDIDAFLKVPRPDGKPDNLGLLVLDEPSTKQSDPTVLSLWLTENSKQHNITQHMKVKSLEDAEKNPKAIDTWIESISELHRSKPPATVHYTRPMPDIDTLMQEWSPEFEELLGKVSLPTAEIDCSLAEYIDMICAILDIPVYKSRIQSLHLLFSLYSEFKNSQHFKALAEGKKAFTPSSNSTSQAGDMETLTFS
Regarding B2, the binding result is recorded as “binds”.

B3: IFT52 (protein, UniProt Q9Y366 1-437)
chain: MEKELRSTILFNAYKKEIFTTNNGYKSMQKKLRSNWKIQSLKDEITSEKLNGVKLWITAGPREKFTAAEFEILKKYLDTGGDVFVMLGEGGESRFDTNINFLLEEYGIMVNNDAVVRNVYHKYFHPKEALVSSGVLNREISRAAGKAVPGIIDEESSGNNAQALTFVYPFGATLSVMKPAVAVLSTGSVCFPLNRPILAFYHSKNQGGKLAVLGSCHMFSDQYLDKEENSKIMDVVFQWLTTGDIHLNQIDAEDPEISDYMMLPYTATLSKRNRECLQESDEIPRDFTTLFDLSIFQLDTTSFHSVIEAHEQLNVKHEPLQLIQPQFETPLPTLQPAVFPPSFRELPPPPLELFDLDETFSSEKARLAQITNKCTEEDLEFYVRKCGDILGVTSKLPKDQQDAKHILEHVFFQVVEFKKLNQEHDIDTSETAFQNNF
In the case of B3, the binding entry was “binds”.

B4: TTC30A (endogenous, untagged) (protein, UniProt Q86WT1 1-665)
chain: MAGLSGAQIPDGEFTALVYRLIRDARYAEAVQLLGRELQRSPRSRAGLSLLGYCYYRLQEFALAAECYEQLGQLHPELEQYRLYQAQALYKACLYPEATRVAFLLLDNPAYHSRVLRLQAAIKYSEGDLPGSRSLVEQLLSGEGGEESGGDNETDGQVNLGCLLYKEGQYEAACSKFSATLQASGYQPDLSYNLALAYYSSRQYASALKHIAEIIERGIRQHPELGVGMTTEGFDVRSVGNTLVLHQTALVEAFNLKAAIEYQLRNYEVAQETLTDMPPRAEEELDPVTLHNQALMNMDARPTEGFEKLQFLLQQNPFPPETFGNLLLLYCKYEYFDLAADVLAENAHLTYKFLTPYLYDFLDALITCQTAPEEAFIKLDGLAGMLTEQLRRLTKQVQEARHNRDDEAIKKAVNEYDETMEKYIPVLMAQAKIYWNLENYPMVEKVFRKSVEFCNDHDVWKLNVAHVLFMQENKYKEAIGFYEPIVKKHYDNILNVSAIVLANLCVSYIMTSQNEEAEELMRKIEKEEEQLSYDDPNRKMYHLCIVNLVIGTLYCAKGNYEFGISRVIKSLEPYNKKLGTDTWYYAKRCFLSLLENMSKHMIVIHDSVIQECVQFLGHCELYGTNIPAVIEQPLEEERMHVGKNTVTDESRQLKALIYEIIGWNK
Take B4: the binding result is “binds”.
